Laboratory results reported in the supplement of paper PMC8728848.
The list shows a part of the results.

Legend:
Experiment in all cases: glycan array binding signal (z-score within array); higher = stronger binding
Conditions in all cases: glycan notation: IUPAC condensed, linker removed
[1] = target: Gal(a1-3)Gal
How it was run: (§1)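 Columns mapping to the same glycan were averaged after glycan names were converted to IUPAC-condensed notation. The data come from 3228 arrays in the Consortium for Functional Glycomics database, limited to those with an available protein sequence. Binding is reported as a within-array Z-score averaged across arrays of one protein sequence and across linkers.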

[2] = target: Gal(a1-3)Gal(b1-3)GlcNAc
How it was run: as §1

[3] = target: Gal(a1-3)Gal(b1-3)GlcNAc(b1-2)Man
How it was run: as §1

[4] = target: Gal(a1-3)Gal(b1-3)GlcNAc(b1-2)Man(a1-3)[Gal(a1-3)Gal(b1-3)GlcNAc(b1-2)Man(a1-6)]Man(b1-4)GlcNAc(b1-4)GlcNAc
How it was run: as §1

[5] = target: Gal(a1-3)Gal(b1-3)GlcNAc(b1-3)GalNAc
How it was run: as §1

[6] = target: Gal(a1-3)Gal(b1-3)GlcNAc(b1-6)GalNAc
How it was run: as §1

[7] = target: Gal(a1-3)Gal(b1-3)[Fuc(a1-4)]GlcNAc(b1-2)Man(a1-3)[Gal(a1-3)Gal(b1-3)[Fuc(a1-4)]GlcNAc(b1-2)Man(a1-6)]Man(b1-4)GlcNAc(b1-4)GlcNAc
How it was run: as §1

[8] = target: Gal(a1-3)Gal(b1-4)Glc
How it was run: as §1

[9] = target: Gal(a1-3)Gal(b1-4)GlcNAc
How it was run: as §1

[10] = target: Gal(a1-3)Gal(b1-4)GlcNAc(b1-2)Man
How it was run: as §1

[11] = target: Gal(a1-3)Gal(b1-4)GlcNAc(b1-2)Man(a1-3)[Gal(a1-3)Gal(b1-4)GlcNAc(b1-2)Man(a1-6)]Man(b1-4)GlcNAc(b1-4)GlcNAc
How it was run: as §1

[12] = target: Gal(a1-3)Gal(b1-4)GlcNAc(b1-3)GalNAc
How it was run: as §1

[13] = target: Gal(a1-3)Gal(b1-4)GlcNAc(b1-6)GalNAc
How it was run: as §1

[14] = target: Gal(a1-3)Gal(b1-4)[Fuc(a1-3)]GlcNAc
How it was run: as §1

[15] = target: Gal(a1-3)Gal(b1-4)[Fuc(a1-3)]GlcNAc(b1-2)Man(a1-3)[Gal(a1-3)Gal(b1-4)[Fuc(a1-3)]GlcNAc(b1-2)Man(a1-6)]Man(b1-4)GlcNAc(b1-4)GlcNAc
How it was run: as §1

[16] = target: Gal(a1-3)GalNAc
How it was run: as §1

[17] = target: Gal(a1-3)[Gal(a1-4)]Gal(b1-4)GlcNAc
How it was run: as §1

[18] = target: Gal(a1-4)Gal(b1-3)GlcNAc(b1-2)Man(a1-3)[Gal(a1-4)Gal(b1-3)GlcNAc(b1-2)Man(a1-6)]Man(b1-4)GlcNAc(b1-4)GlcNAc
How it was run: as §1

[19] = target: Gal(a1-4)Gal(b1-4)Glc
How it was run: as §1

[20] = target: Gal(a1-4)Gal(b1-4)GlcNAc
How it was run: as §1

[21] = target: Gal(a1-4)Gal(b1-4)GlcNAc(b1-2)Man(a1-3)[Gal(a1-4)Gal(b1-4)GlcNAc(b1-2)Man(a1-6)]Man(b1-4)GlcNAc(b1-4)GlcNAc
How it was run: as §1

[22] = target: Gal(a1-4)Gal(b1-4)GlcNAc(b1-3)Gal(b1-4)Glc
How it was run: as §1

[23] = target: Gal(a1-4)GlcNAc
How it was run: as §1

[24] = target: Gal(a1-6)Glc
How it was run: as §1

[25] = target: Gal(b1-2)Gal
How it was run: as §1

[26] = target: Gal(b1-3)Gal
How it was run: as §1

[27] = target: Gal(b1-3)Gal(b1-4)GlcNAc
How it was run: as §1

[28] = target: Gal(b1-3)GalNAc
How it was run: as §1

[29] = target: Gal(b1-3)GalNAc(a1-3)[Fuc(a1-2)]Gal(b1-4)Glc
How it was run: as §1

[30] = target: Gal(b1-3)GalNAc(a1-3)[Fuc(a1-2)]Gal(b1-4)GlcNAc
How it was run: as §1

[31] = target: Gal(b1-3)GalNAc(b1-3)Gal
How it was run: as §1

[32] = target: Gal(b1-3)GalNAc(b1-3)Gal(a1-4)Gal(b1-4)Glc
How it was run: as §1

[33] = target: Gal(b1-3)GalNAc(b1-4)Gal(b1-4)Glc
How it was run: as §1

[34] = target: Gal(b1-3)GalNAc(b1-4)[Neu5Ac(a2-3)]Gal(b1-4)Glc
How it was run: as §1

[35] = target: Gal(b1-3)GlcNAc
How it was run: as §1

[36] = target: Gal(b1-3)GlcNAc(a1-3)Gal(b1-4)GlcNAc
How it was run: as §1

[37] = target: Gal(b1-3)GlcNAc(a1-6)Gal(b1-4)GlcNAc
How it was run: as §1

[38] = target: Gal(b1-3)GlcNAc(b1-2)Man
How it was run: as §1

B1: ERGIC1-EDTA (Homo sapiens), Q969X5 (protein)
chain: MKFLVNVALVFMVVYISYIYAAAHMHHHHHHDYDIPTTENLYFQGSEVVNELYVDDPDKDSGGKIDVSLNISLPNLHCELVGLDIQDEMGRHEVGHIDNSMKIPLNNGAGCRFEGQFSINKVPGNFHVSTHSATAQPQNPDMTHVIHKLSFGDTLQVQNIHGAFNALGGADRLTSNPLASHDYILKIVPTVYEDKSGKQRYSYQYTVANKEYVAYSHTGRIIPAIWFRYDLSPITVKYTE
[1]
  glycan array binding signal (z-score): 0.304
[2]
  glycan array binding signal (z-score): 0.254
[3]
  glycan array binding signal (z-score): 0.154
[4]
  glycan array binding signal (z-score): 0.468
[5]
  glycan array binding signal (z-score): 0.82
[6]
  glycan array binding signal (z-score): 0.056
[7]
  glycan array binding signal (z-score): 1.66
[8]
  glycan array binding signal (z-score): -0.165
[9]
  glycan array binding signal (z-score): -0.505
[10]
  glycan array binding signal (z-score): -1.12
[11]
  glycan array binding signal (z-score): 0.437
[12]
  glycan array binding signal (z-score): -0.034
[13]
  glycan array binding signal (z-score): 0.183
[14]
  glycan array binding signal (z-score): -0.92
[15]
  glycan array binding signal (z-score): 1.74
[16]
  glycan array binding signal (z-score): -0.361
[17]
  glycan array binding signal (z-score): -0.325
[18]
  glycan array binding signal (z-score): 0.579
[19]
  glycan array binding signal (z-score): -0.549
[20]
  glycan array binding signal (z-score): -0.322
[21]
  glycan array binding signal (z-score): 0.145
[22]
  glycan array binding signal (z-score): 0.927
[23]
  glycan array binding signal (z-score): -0.828
[24]
  glycan array binding signal (z-score): 0.061
[25]
  glycan array binding signal (z-score): -0.135
[26]
  glycan array binding signal (z-score): 0.934
[27]
  glycan array binding signal (z-score): -0.609
[28]
  glycan array binding signal (z-score): -0.192
[29]
  glycan array binding signal (z-score): 0.278
[30]
  glycan array binding signal (z-score): -0.819
[31]
  glycan array binding signal (z-score): 0.15
[32]
  glycan array binding signal (z-score): 0.748
[33]
  glycan array binding signal (z-score): -0.657
[34]
  glycan array binding signal (z-score): 0.859
[35]
  glycan array binding signal (z-score): -0.584
[36]
  glycan array binding signal (z-score): 0.087
[37]
  glycan array binding signal (z-score): -0.267
[38]
  glycan array binding signal (z-score): 0.451
